Some of the results follow. Further columns of the screen follow, without active or inactive calls. Most of these compounds were active or inconclusive in the main read-out, so they are no random draw. Words in brackets tell the shape of the fitted curve; partial curves, single points and poor fits give uncertain potencies.
Assay: qHTS Assay to Find Inhibitors of Chronic Active B-Cell Receptor Signaling
Conditions: ABC-DLBCL IkBa-CBG/CBR reporter, luminescence ratio (green luciferase fused to IkBa over red control in TMD8 lymphoma cells), 4 h
Outline: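 TMD8 ABC-DLBCL cells carrying doxycycline-inducible green luciferase fused to IkappaBalpha plus unfused red luciferase were exposed to compounds (up to 46 uM) for 4 hrs at 37C. Activity came from the overlap-corrected green/red luminescence ratio.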

[1] = measured here: CBR red luminescence, cell number
[2] = measured here: IkBa-CBG green luminescence

SMILES	AC50 [1]	AC50 [2]
COCCNC(=S)N/N=C(\C)c1ccc(Cl)c(Cl)c1	35.5 µM [falling, single point]	22.4 µM [falling, single point]
CC1CCN(C(=O)c2ccc3c(Cl)c4c(nc3c2)CCCC4)CC1	22.4 µM [falling, partial curve]	12.6 µM [rising, single point]
Cc1ccc(NC(=O)c2cc(NC(=O)c3ccccc3C(=O)O)ccc2N2CCCCC2)cc1	35.5 µM [falling, single point]	
COc1cccc(C2=NOC(C(=O)NCc3cccs3)C2)c1 (stereo not given)	7.08 µM [falling, partial curve]	
CCOc1ccccc1N/C=C(\C#N)c1nc2ccccc2n1C	32.6 µM [rising, partial curve, poor fit]	
CCCCn1c(NC(=O)C2CCCCC2)nc2ccccc21	6.51 µM [rising, partial curve, poor fit]	
COC(=O)C1(C(=O)OC)Sc2ccccc2C1=O	4.61 µM [rising, full curve, poor fit]	
C/C(=N\NC(=O)c1ccc(N(C)C)cc1)c1ccc(C)c(C)c1	14.6 µM [falling, partial curve, poor fit]	
COc1ccccc1OCCNC(=O)c1cc(C2CC2)nc2c1cnn2C(C)C	25.9 µM [falling, single point]	
CN(CC(=O)Nc1ccc(F)cc1)C(=O)Cn1c(=O)oc2ccccc21	3.66 µM [falling, full curve]	
CCN(CC)C(=O)CSc1nc2ccccc2c(=O)n1-c1cccc(OC)c1	0.231 µM [rising, full curve, poor fit]	
Cc1cc(=O)oc2cc(OCC(=O)Nc3cccc(S(=O)(=O)N(C)C)c3)ccc12	23.1 µM [rising, single point]	
Cc1cccc(N2CCN(C(=O)[C@H](C)N3C(=O)C4CC=CCC4C3=O)CC2)c1C (stereo not given in full)	23.1 µM [rising, single point]	
O=C1/C(=C/c2ccc(F)c(F)c2)CSc2sccc21		32.6 µM [rising, partial curve, poor fit]
COc1ccc(-c2cc(=O)c3cc(O)ccc3o2)cc1	10 µM [falling, single point]	
CCOC(=O)c1oc2cccc(O)c2c1C	11.6 µM [falling, partial curve, poor fit]	

SMILES	AC50 [1]	AC50 [2]
CC(=O)N1CCN(Cc2nc3cc([N+](=O)[O-])ccc3n2C)CC1	35.5 µM [falling, single point]	
NS(=O)(=O)c1cccnc1Nc1ccc(Cl)c(Cl)c1	1.3 µM [rising, partial curve]	
CCc1nnc(NC(=O)CCN2C(=O)CCC2=O)s1	0.1 µM [rising, full curve, poor fit]	
CCOc1ccccc1C(=O)N/N=C/c1cccc2cccnc12	3.55 µM [falling, full curve]	
OCCC1CN(Cc2cc3c(cc2Cl)OCO3)CCN1C1CCCCC1 (stereo not given)	2.82 µM [falling, partial curve, poor fit]	
COc1ccc(NC(=O)CN2CCN(c3ccc(F)cc3)CC2)cc1	35.5 µM [falling, single point]	
O=C(CN1C(=O)c2cccnc2Oc2ccc(Cl)cc21)NC1CCCCC1	1.58 µM [rising, partial curve, poor fit]	
CCCCNc1nc2c(-c3ccccc3)nnn2c2ccccc12	10 µM [falling, partial curve, poor fit]	
O=C(c1ccccc1)c1ccc(CN2C(=O)c3ccccc3C2=O)o1	14.6 µM [rising, partial curve, poor fit]	
CC(=O)Nc1ccc(OC(F)(F)Cl)cc1	15.8 µM [rising, single point]	
Cc1ccc(Nc2nc3nonc3[nH]c2=O)cc1Cl	25.1 µM [falling, single point]	
Cc1ccc2c(c1)c1c3n2CCN(CC#N)C3CCC1 (stereo not given)	2.24 µM [rising, full curve]	
N#Cc1c(N)c(C(=O)c2ccccc2)n2c1CCC2	32.6 µM [rising, single point]	
Cc1ccc(-n2ncc3c(NCC(C)C)ncnc32)c(C)c1	7.08 µM [falling, partial curve, poor fit]	
COc1c(Br)cc(Br)cc1/C=N/NC(=O)c1cccnc1	8.91 µM [rising, partial curve, poor fit]	28.2 µM [falling, partial curve, poor fit]
CNC(=O)c1c(NC(NC(=O)c2ccco2)C(=O)c2ccc(Cl)cc2)sc2c1CCCC2 (stereo not given)	28.2 µM [falling, single point]	

Some of the entries above, set out differently.

| SMILES | AC50 [1] | AC50 [2] |
| --- | --- | --- |
| O=C(CN1C(=O)c2cccnc2Oc2ccc(Cl)cc21)NC1CCCCC1 | 1.58 µM [rising, partial curve, poor fit] |  |
| CCCCNc1nc2c(-c3ccccc3)nnn2c2ccccc12 | 10 µM [falling, partial curve, poor fit] |  |
| O=C(c1ccccc1)c1ccc(CN2C(=O)c3ccccc3C2=O)o1 | 14.6 µM [rising, partial curve, poor fit] |  |
| CC(=O)Nc1ccc(OC(F)(F)Cl)cc1 | 15.8 µM [rising, single point] |  |
| Cc1ccc(Nc2nc3nonc3[nH]c2=O)cc1Cl | 25.1 µM [falling, single point] |  |
| Cc1ccc2c(c1)c1c3n2CCN(CC#N)C3CCC1 (stereo not given) | 2.24 µM [rising, full curve] |  |

Source: PubChem BioAssay AID493014 (National Center for Advancing Translational Sciences (NCATS), 2011)
